Data from PMC8134555.
Results are given in words; binding and its absence hold for the method and conditions named. In cells and extracts the contact can be indirect. Some entries that bind do so weakly or less than the wild type.

Target: T1, macrophage migration inhibitory factor (MIF), endogenous (human (endogenous in MDA-MB-231 and HeLa)) (UniProt P14174)
T1 sequence: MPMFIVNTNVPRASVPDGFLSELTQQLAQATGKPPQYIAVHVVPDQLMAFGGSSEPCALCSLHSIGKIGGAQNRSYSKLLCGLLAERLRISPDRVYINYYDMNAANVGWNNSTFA
Test: co-IP; endogenous proteins, MDA-MB-231 lysate in NETN buffer (150 mM NaCl, 1 mM EDTA, 10 mM Tris-HCl pH 8.0, 0.5% IGEPAL), antibodies to MIF or PCNA with protein A/G magnetic beads overnight at 4 °C, immunoblot; also with or without Olaparib (5 uM, 2 h) after double thymidine synchronisation (more MIF-PCNA with Olaparib)

B1: Mus81, endogenous (protein, UniProt Q96NY9 1-551)
chain: MAAPVRLGRKRPLPACPNPLFVRWLTEWRDEATRSRRRTRFVFQKALRSLRRYPLPLRSGKEAKILQHFGDGLCRMLDERLQRHRTSGGDHAPDSPSGENSPAPQGRLAEVQDSSMPVPAQPKAGGSGSYWPARHSGARVILLVLYREHLNPNGHHFLTKEELLQRCAQKSPRVAPGSARPWPALRSLLHRNLVLRTHQPARYSLTPEGLELAQKLAESEGLSLLNVGIGPKEPPGEETAVPGAASAELASEAGVQQQPLELRPGEYRVLLCVDIGETRGGGHRPELLRELQRLHVTHTVRKLHVGDFVWVAQETNPRDPANPGELVLDHIVERKRLDDLCSSIIDGRFREQKFRLKRCGLERRVYLVEEHGSVHNLSLPESTLLQAVTNTQVIDGFFVKRTADIKESAAYLALLTRGLQRLYQGHTLRSRPWGTPGNPESGAMTSPNPLCSLLTFSDFNAGAIKNKAQSVREVFARQLMQVRGVSGEKAAALVDRYSTPASLLAAYDACATPKEQETLLSTIKCGRLQRNLGPALSRTLSQLYCSYGPLT
  binding: binds
